From paper PMC8007567
These are yes or no findings as the source states them, for the method shown. Binding seen in cells or lysates may run through a third protein. Some results given as binding are weak or reduced against the parent protein; the word gives no strength.

The chains behind the UniProt entries cited, without tags or fusion partners. Where a name states a change or a piece, a line headed by the entry shows the natural chain unless it says otherwise. A line that says so, or that is headed by a name, gives the form on record, which may keep a tag or linker. Residues count along the entry.
UniProt Q05639: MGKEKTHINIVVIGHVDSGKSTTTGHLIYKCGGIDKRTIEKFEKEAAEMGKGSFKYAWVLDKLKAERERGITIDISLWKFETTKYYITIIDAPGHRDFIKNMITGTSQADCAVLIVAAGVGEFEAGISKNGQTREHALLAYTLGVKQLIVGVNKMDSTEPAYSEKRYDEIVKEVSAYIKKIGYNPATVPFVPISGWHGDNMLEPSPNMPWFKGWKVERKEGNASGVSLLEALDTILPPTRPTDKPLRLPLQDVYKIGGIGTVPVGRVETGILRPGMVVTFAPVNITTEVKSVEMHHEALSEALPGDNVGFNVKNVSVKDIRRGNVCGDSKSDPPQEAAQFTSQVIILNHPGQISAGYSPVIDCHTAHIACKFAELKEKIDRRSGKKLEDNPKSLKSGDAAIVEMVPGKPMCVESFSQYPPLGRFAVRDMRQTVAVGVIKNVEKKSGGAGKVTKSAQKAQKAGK
Flag-tagged EEF1A2 domain I (1–240 aa): residues 1-240 of Q05639
UniProt P08238: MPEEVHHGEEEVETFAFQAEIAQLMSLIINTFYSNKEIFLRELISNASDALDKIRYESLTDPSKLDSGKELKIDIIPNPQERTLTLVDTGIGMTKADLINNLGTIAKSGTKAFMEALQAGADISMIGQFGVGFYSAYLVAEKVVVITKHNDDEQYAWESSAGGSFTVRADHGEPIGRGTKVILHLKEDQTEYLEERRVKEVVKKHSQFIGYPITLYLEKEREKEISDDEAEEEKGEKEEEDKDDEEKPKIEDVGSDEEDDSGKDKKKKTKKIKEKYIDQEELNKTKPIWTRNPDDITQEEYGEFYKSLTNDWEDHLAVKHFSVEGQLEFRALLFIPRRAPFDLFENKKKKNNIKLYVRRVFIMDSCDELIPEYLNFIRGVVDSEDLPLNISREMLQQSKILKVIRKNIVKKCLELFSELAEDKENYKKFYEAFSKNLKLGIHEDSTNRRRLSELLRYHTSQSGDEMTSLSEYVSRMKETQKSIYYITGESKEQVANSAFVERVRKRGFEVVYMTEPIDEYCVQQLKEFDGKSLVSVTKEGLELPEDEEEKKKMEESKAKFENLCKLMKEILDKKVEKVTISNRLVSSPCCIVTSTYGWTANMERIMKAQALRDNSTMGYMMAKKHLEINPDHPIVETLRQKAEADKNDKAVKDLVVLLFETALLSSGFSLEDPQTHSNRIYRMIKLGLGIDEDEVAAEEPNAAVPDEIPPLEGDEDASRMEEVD
UniProt P26641: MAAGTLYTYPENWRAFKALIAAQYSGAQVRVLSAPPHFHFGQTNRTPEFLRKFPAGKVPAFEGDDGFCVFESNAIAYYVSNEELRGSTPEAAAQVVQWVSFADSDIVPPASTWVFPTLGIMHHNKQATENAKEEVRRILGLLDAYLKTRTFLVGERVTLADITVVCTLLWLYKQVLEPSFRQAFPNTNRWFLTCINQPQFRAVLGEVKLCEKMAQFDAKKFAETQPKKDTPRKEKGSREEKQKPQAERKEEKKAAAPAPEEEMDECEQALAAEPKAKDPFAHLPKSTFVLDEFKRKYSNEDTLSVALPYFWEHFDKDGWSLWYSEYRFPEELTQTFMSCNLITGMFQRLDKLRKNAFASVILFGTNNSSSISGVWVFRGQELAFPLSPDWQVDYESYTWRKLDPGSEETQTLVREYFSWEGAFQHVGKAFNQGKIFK
UniProt P12956: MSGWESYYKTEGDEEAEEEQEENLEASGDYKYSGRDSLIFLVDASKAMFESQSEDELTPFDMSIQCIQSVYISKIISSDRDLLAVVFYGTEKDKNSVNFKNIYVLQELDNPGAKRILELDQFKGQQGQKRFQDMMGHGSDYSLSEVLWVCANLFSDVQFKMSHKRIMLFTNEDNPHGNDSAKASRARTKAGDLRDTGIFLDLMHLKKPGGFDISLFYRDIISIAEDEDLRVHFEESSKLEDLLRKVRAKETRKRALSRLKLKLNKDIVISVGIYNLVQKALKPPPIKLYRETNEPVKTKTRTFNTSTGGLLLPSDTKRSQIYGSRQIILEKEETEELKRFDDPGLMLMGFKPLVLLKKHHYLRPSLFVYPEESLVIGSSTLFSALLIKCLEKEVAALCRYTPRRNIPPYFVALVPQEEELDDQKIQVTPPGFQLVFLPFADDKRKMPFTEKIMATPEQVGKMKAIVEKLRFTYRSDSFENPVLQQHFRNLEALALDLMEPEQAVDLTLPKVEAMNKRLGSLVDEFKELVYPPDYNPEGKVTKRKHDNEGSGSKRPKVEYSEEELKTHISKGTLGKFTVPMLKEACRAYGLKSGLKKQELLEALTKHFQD

Columns and labels:
[1] = molecular target: EEF1A2-Flag (partner of the Myc-HSP90AB1 truncation fragments) (UniProt Q05639); assay: co-IP; EEF1A2-Flag and HSP90AB1-Myc truncation mutants (pcDNA3.1(+)) co-transfected into HEK293 cells; called pull-down assay in the text, co-immunoprecipitation in the legend
[2] = molecular target: Flag-EEF1A2 (eukaryotic protein translation elongation factor 1α2) (UniProt Q05639); assay: co-IP; A549 cells transfected with Flag-EEF1A2; immunoprecipitated with Flag monoclonal antibody; partners detected by immunoblotting
[3] = molecular target: Flag-tagged EEF1A2 domain I (1–240 aa) (UniProt Q05639); assay: co-IP; EEF1A2-Flag and HSP90AB1-Myc truncation mutants (pcDNA3.1(+)) co-transfected into HEK293 cells; called pull-down assay in the text, co-immunoprecipitation in the legend

| Substance | binding [2] | other results |
| --- | --- | --- |
| Myc-HSP90AB1 domain I (1–232 aa) (from UniProt P08238 1-232) (domain or fragment) |  | binding [1]: binds |
| HSP90AB1-Myc (partner of the Flag-EEF1A2 truncation fragments) (from UniProt P08238 1-724) |  | binding [3]: binds |
| EEF1G (from UniProt P26641 1-437) | binds |  |

More lines, main results first:

| binding [2] | Substance | other results |
| --- | --- | --- |
| binds | HSP90AB1 (from UniProt P08238 1-724) |  |
| binds | XRCC6 (from UniProt P12956 1-609) |  |
